PubChem BioAssay AID504786 | Drosophila RNAi Screening Center | 2011
In all, the deposit lists about 21,000 reagents; below is a random part of those that have a named target and a result. 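Primary screen; positive scores mean lost reporter signal, so the sign may be inverted from the usual convention.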 The numbers tell different reagents against one gene apart. A plus sign joins genes that one reagent is predicted to hit.

- Screen: 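Knock-downs reducing HIF reporter induction by the iron chelator DFO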 (primary screen)
- Cell system: Drosophila S2 cells with a stable HIF luciferase reporter
- Reagents: long dsRNA against Drosophila genes, about 0.2 µg dsRNA per well of a 384-well plate
- Time to read-out: three days of knock-down, then 20 h of DFO before reading
- Challenge: desferrioxamine (DFO) at 100 µM, an iron chelator that mimics hypoxia, for 20 h
- Measurement: 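Firefly luciferase driven by the mouse ldh-a hypoxia-response element, measured after 20 h of 100 µM DFO; z-scores per plate, higher means more signal lost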
- Reading the numbers: z-score: higher = stronger loss of HIF reporter signal

target	reagent no.	z-score, replicate 1	z-score, replicate 2
CG3942	1	-0.3	-0.4
CG9897 + asRNA:CR42742	1	-0.2	-0.3
dila (dilatory)	1	-0.2	-0.2
Gtpx	1	-0.3	-0.6
mRpL36 (mitochondrial ribosomal protein L36)	1	1.2	1.3
Syt12 (Synaptotagmin 12)	1	-0.4	-1.1
Pvf2 (PDGF- and VEGF-related factor 2)	1	2.6	5.2
Pvf2 (PDGF- and VEGF-related factor 2)	2	2	1.7
CG16711	1	-0.4	-0.4
CG32069 + Blos2	1	-0.5	-0.6
CG13999	1	-0.4	-0.4
MED15 (Mediator complex subunit 15)	1	2.5	2.2
CG33465	1	0	-0.2
TwdlC (TweedleC)	1	-0.2	0.1
PAPLA1 (Phosphatidic Acid Phospholipase A1)	1	-0.3	-0.6
PAPLA1 (Phosphatidic Acid Phospholipase A1)	2	-0.4	-0.4
CG10927	1	3.6	3.2
MRG15 (MORF-related gene 15)	1	-0.3	-0.3
hook	1	-0.4	-0.6
CG10581	1	-0.3	0

Continued, starting with the last 2 of the part before.
target	reagent no.	z-score, replicate 1	z-score, replicate 2
hook	1	-0.4	-0.6
CG10581	1	-0.3	0
Rgk2 (Rad, Gem/Kir family member 2)	1	-0.3	-0.2
CG14609	1	-0.2	-0.5
Mcm10 (Minichromosome maintenance 10)	1	-0.3	-0.1
hng2 (hinge2)	1	-0.2	-0.3
UK114	1	-0.1	-0.2
Diedel3 (Diedel 3)	1	-0.2	0.2
MED20 (Mediator complex subunit 20)	1	-0.5	-1.2
Invadolysin	1	-0.2	1.8
DENR (Density regulated protein)	1	-0.1	0
I-t (inhibitor-t)	1	-0.3	-0.1
CG2772	1	-0.2	-0.2
robo2 (roundabout 2)	1	-0.2	-0.7
robo2 (roundabout 2)	2	-0.2	-0.6
robo2 (roundabout 2)	3	-0.2	-0.4
robo2 (roundabout 2)	4	-0.1	0
